Source: paper PMC8726646
These are yes or no findings as the source states them, for the method shown. Binding seen in cells or lysates may run through a third protein. A yes stands for co-enrichment or nearness to the bait. Other partners may have been found.

The chains behind the UniProt entries cited, without tags or fusion partners.
UniProt P37231: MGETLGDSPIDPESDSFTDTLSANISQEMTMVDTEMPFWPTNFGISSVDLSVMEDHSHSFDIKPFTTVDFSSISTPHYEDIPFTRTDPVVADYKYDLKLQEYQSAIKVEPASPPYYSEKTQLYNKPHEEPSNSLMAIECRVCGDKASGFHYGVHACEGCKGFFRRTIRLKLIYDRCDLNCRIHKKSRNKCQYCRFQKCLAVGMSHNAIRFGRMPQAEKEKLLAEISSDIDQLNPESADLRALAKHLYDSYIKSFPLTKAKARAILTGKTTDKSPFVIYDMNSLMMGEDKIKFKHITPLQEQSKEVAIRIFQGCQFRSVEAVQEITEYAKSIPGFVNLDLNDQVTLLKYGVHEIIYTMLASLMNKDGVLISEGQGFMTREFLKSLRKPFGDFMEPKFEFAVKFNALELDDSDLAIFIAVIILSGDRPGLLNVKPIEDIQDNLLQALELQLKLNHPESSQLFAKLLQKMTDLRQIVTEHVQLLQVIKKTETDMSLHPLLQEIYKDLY
UniProt Q9NXV2: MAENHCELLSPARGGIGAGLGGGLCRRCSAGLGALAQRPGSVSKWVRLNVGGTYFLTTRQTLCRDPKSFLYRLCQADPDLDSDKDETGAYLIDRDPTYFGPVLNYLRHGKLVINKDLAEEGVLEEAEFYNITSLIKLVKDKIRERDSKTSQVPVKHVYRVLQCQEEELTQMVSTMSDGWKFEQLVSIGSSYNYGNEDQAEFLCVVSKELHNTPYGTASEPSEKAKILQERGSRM
UniProt Q9Y2H1: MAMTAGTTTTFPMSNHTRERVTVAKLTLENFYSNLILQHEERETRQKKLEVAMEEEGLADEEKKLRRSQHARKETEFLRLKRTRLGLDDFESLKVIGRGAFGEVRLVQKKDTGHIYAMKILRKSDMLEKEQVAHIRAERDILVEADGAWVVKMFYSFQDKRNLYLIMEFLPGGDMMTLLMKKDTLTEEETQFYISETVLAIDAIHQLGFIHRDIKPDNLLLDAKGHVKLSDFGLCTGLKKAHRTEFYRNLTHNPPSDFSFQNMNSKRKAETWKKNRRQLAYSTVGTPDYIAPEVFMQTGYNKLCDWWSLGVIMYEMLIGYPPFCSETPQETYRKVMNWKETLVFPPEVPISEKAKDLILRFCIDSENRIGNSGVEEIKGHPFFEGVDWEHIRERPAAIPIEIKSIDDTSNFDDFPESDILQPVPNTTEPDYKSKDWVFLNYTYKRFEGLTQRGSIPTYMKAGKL
UniProt Q15208: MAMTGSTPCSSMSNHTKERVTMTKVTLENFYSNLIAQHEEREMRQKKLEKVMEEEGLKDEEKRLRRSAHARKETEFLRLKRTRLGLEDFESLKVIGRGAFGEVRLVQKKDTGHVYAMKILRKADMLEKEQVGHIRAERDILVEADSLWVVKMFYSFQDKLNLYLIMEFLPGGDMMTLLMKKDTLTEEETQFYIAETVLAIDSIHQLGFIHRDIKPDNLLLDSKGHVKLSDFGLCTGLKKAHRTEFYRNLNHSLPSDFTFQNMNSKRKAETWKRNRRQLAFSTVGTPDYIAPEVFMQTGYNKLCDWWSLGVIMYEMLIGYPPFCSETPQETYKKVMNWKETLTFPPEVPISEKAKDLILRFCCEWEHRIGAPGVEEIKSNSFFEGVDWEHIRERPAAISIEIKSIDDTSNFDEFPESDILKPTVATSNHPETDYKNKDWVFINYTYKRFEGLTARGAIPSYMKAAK

B1: PPM1B (Protein Phosphatase 1B), endogenous (enzyme, UniProt O75688 1-479)
chain: MGAFLDKPKTEKHNAHGAGNGLRYGLSSMQGWRVEMEDAHTAVVGIPHGLEDWSFFAVYDGHAGSRVANYCSTHLLEHITTNEDFRAAGKSGSALELSVENVKNGIRTGFLKIDEYMRNFSDLRNGMDRSGSTAVGVMISPKHIYFINCGDSRAVLYRNGQVCFSTQDHKPCNPREKERIQNAGGSVMIQRVNGSLAVSRALGDYDYKCVDGKGPTEQLVSPEPEVYEILRAEEDEFIILACDGIWDVMSNEELCEYVKSRLEVSDDLENVCNWVVDTCLHKGSRDNMSIVLVCFSNAPKVSDEAVKKDSELDKHLESRVEEIMEKSGEEGMPDLAHVMRILSAENIPNLPPGGGLAGKRNVIEAVYSRLNPHRESDGASDEAEESGSQGKLVEALRQMRINHRGNYRQLLEEMLTSYRLAKVEGEESPAEPAATATSSNSDAGNPVTMQESHTESESGLAELDSSNEDAGTKMSGEKI

These molecules were tested against Flag-PPARγ (peroxisome proliferator-activated receptor-γ), expressed by lentivirus in human preadipocytes (UniProt P37231) (assay: affinity purification with mass spectrometry; Flag-tagged baits expressed by lentivirus in human preadipocytes, cells treated with rosiglitazone (1 µM) and insulin (70 nM) for 24 h; lysis in 50 mM Tris pH 7.5, 150 mM NaCl, 1% NP 40, 0.25% sodium deoxycholate, 10% glycerol, 1 mM EGTA; anti-Flag M2 magnetic beads overnight at 4°C, wash with 250 mM NaCl, elution with Flag peptide, LC-tandem mass spectrometry; three independent experiments).

binding | Molecule
binds | BTB/POZ domain-containing protein KCTD5 (Potassium Channel Tetramerization Domain Containing 5), endogenous (from UniProt Q9NXV2 1-234)
binds | STK38-like protein (STK38L), endogenous (from UniProt Q9Y2H1 1-464) (enzyme)
binds | serine/threonine-protein kinase 38 (STK38), endogenous (from UniProt Q15208 1-465) (enzyme)
binds | B1
